In PubChem BioAssay AID652054 (National Center for Advancing Translational Sciences (NCATS), 2013):
About 9,100 (2.5%) of roughly 360,000 compounds were called active. Inconclusive means that the source gave no clear call. Such entries were picked first, then a sample of the others. Rule as the data show it: active = max response below about -50%; inconclusive = no clear call, values can overlap the other calls; inactive = above that.

The chains behind the UniProt entries cited, without tags or fusion partners.
UniProt P35462, whole entry, looked up: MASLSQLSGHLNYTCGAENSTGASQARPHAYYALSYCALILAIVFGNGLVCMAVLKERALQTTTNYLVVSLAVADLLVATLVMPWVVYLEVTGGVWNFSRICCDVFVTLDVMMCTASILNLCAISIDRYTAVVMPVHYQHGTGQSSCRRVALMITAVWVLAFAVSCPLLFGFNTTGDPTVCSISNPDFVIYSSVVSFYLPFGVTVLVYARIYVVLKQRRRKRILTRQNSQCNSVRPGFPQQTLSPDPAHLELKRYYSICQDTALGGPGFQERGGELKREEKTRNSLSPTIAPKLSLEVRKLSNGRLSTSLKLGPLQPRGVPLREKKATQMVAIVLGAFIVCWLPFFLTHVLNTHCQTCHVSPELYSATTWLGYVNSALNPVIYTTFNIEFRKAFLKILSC

Each compound was assayed against D(3) dopamine receptor (Homo sapiens) (UniProt P35462) (assay: qHTS of D3 Dopamine Receptor Antagonist: qHTS). Settings: D3R cells, DiscoveRx beta-arrestin luminescence, antagonist mode; active compounds read low.
Outline: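 Cells plated overnight at 1500 cells/well, then exposed to library compounds with dopamine controls for 90 minutes at 37 degrees C. DiscoveRx reagent added for 30–60 minutes at room temperature; luminescence read, quantitative HTS format.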
% is scaled to controls: 0 for no effect and ±100 for the full control effect.

Structure (SMILES)	max response, negative = inhibition
O=C1CCCC2=C1C1c3ccccc3C(=O)N1c1ccc(C(=O)c3ccccc3)cc1N2 (centres undefined)	inconclusive: -48.6%
O=C(Nc1ccc(Cl)cn1)c1cnn2cccnc12	inconclusive: -30.7%
COc1ccc(CCC(C)NCc2cccc(Br)c2)cc1 (centres undefined)	active: -68.3%
COc1ccccc1-n1c(CNC(=O)c2ccc(S(=O)(=O)N3CCCCC3)cc2)n[nH]c1=S	inconclusive: -37.9%
COc1cccc(NC(=O)c2ccc(NCCCN3CCC(C)CC3)c([N+](=O)[O-])c2)c1	active: -53.6%
O=[N+]([O-])c1cc([N+](=O)[O-])c(N2CCCCCC2)cc1NCCO	inconclusive: -49.4%
COc1ccc(C(=O)NCc2nnc(SCC(=O)NC3CCCC3)o2)cc1	inactive: 13%
O=C(Nc1ccccc1Cl)c1ccc2nccnc2c1	inactive: -10%
CCC(=O)Nc1ccc(N2CCN(Cc3ccccc3F)CC2)cc1	inconclusive: -43%
COc1cc2[nH]c(=O)c(C(=O)NCCCN3CCCCC3)c(O)c2cc1OC	active: -56.9%
Cc1c(C(=O)N(C)C)sc(NC(=O)c2cc([N+](=O)[O-])cc([N+](=O)[O-])c2)c1C#N	active: -91.2%
OC(c1ccc(Cl)cc1Cl)C(Cc1cccnc1)n1cncn1 (centres undefined)	active: -75.3%
Nc1ccccc1C#Cc1ccc([N+](=O)[O-])cc1	inconclusive: -37.9%
CSc1ncnc2c1ncn2CCCNCCc1ccccn1	inconclusive: -33.9%
CC1=Nc2nc(N3CCCCC3)c(C#N)c3c4c(nc(c23)N1)N(c1ccc(C(C)C)cc1)C(=O)C4	inconclusive: -43.5%
O=C(Oc1c(Br)cc(C(=S)N2CCOCC2)cc1Br)c1ccc(Cl)cc1	inconclusive: -31.2%
Cn1cc(C2N3CC4(C)CN2CC(C)(C3)C4=O)c2ccccc21 (centres undefined)	inconclusive: -32.3%
Cn1c(C(O)c2ccc3c(c2)OCO3)nc2ccccc21 (centres undefined)	inconclusive: -40%
CC(O)C(NS(=O)(=O)c1ccc(Cl)cc1)C(=O)OCc1cc([N+](=O)[O-])cc2c1OCOC2 (centres undefined)	active: -82.9%
CCCCN(C)C(=O)c1sc(=O)n(CC(=O)c2ccccc2OC)c1C	inactive: 12.6%
NCC/C=C1/c2ccccc2CSc2ccccc21	inconclusive: -30.3%
CCOC(=O)CC1CCCCN1C(=O)c1cc(COc2cccc3cnccc23)on1 (centres undefined)	inactive: 7.01%
Cc1onc(-c2c(F)cccc2Cl)c1C(=O)Nc1nnc(-c2ccccc2)s1	inactive: -11.2%
Cc1ccc(-c2nnn(CC(=O)N(Cc3ccc(F)cc3)C(C(=O)NC3CCCC3)c3ccncc3)n2)o1 (centres undefined)	inconclusive: -35.4%

Reformatted bar-delimited: entries from further up
Structure (SMILES) | max response, negative = inhibition
CC(O)C(NS(=O)(=O)c1ccc(Cl)cc1)C(=O)OCc1cc([N+](=O)[O-])cc2c1OCOC2 (centres undefined) | active: -82.9%
CCCCN(C)C(=O)c1sc(=O)n(CC(=O)c2ccccc2OC)c1C | inactive: 12.6%
